Data taken from patent publication US20210292417A1, “HISTAMINE DIHYDROCHLORIDE COMBINATIONS AND USES THEREOF” (Immune Pharmaceuticals LTD., priority 2016, published 2021).
For at least one compound, name, drawing or mass did not settle the structure.

Tested on: CD14+ CMML cells
Experiment: Extracellular ROS production by isoluminol-enhanced chemiluminescence
Format: cell-based, human
Conditions: HDC 50 μM; ranitidine 10 μM; AH202399AA 10 μM
Description: ROS production. The extracellular ROS production of primary CMML cells was measured by isoluminol-enhanced chemiluminescence as described. In brief, 2×10^5 cells were added to 96-well plates in the presence of isoluminol (10 μg/ml) and horseradish peroxidase (HRP; 4U/ml) and stimulated by the NOX2 inducer N-formyl-methionyl-leucyl-phenylalanine (fMLF; 0.1 μM). Light emission was recorded using a FLUOstar Omega platereader (BMG Labtech).

`CNC(=C[N+](=O)[O-])NCCSCc1ccc(CN(C)C)o1` [ranitidine] was tested, and the “effect on the ROS-inhibitory effect of HDC” value was “antagonized”.
